Test results taken from the supplement of paper PMC10849652.
This is one part of the list.

Amino acid sequences for entries named in this document (tags omitted). A change or cut given only in a name is not applied to a line headed by its entry.
UniProt Q13148, whole entry, looked up: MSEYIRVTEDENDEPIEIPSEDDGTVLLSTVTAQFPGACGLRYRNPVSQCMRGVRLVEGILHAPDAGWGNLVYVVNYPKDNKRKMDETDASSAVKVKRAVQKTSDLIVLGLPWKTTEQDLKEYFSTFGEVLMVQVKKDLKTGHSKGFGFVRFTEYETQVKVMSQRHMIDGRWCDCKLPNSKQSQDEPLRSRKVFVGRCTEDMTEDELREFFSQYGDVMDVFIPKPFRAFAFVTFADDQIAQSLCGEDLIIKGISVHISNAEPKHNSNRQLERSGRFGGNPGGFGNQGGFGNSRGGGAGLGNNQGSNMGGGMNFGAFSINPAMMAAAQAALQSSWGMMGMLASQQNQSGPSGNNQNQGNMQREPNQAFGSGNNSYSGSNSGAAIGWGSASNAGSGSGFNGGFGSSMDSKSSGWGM
UniProt Q12788: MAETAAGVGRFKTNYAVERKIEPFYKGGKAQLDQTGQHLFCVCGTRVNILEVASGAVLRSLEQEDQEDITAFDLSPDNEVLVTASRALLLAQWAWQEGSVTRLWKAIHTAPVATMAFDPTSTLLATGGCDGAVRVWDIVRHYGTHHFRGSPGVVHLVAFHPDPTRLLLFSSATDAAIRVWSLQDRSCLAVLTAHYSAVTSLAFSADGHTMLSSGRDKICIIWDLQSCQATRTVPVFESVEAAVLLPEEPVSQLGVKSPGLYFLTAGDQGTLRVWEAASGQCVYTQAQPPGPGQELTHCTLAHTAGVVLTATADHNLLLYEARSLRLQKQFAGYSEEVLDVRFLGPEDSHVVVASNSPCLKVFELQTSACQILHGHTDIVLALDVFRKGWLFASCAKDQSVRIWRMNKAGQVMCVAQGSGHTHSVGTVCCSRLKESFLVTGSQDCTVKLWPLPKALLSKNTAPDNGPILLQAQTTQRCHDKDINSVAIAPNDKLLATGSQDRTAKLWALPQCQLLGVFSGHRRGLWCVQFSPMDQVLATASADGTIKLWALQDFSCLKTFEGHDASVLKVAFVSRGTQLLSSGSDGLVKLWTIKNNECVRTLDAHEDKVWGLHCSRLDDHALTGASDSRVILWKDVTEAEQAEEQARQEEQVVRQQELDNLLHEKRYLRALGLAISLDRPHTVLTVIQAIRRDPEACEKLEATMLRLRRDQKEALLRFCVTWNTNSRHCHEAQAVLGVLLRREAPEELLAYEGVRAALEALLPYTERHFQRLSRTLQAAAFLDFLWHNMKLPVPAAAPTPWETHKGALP
UniProt P15923: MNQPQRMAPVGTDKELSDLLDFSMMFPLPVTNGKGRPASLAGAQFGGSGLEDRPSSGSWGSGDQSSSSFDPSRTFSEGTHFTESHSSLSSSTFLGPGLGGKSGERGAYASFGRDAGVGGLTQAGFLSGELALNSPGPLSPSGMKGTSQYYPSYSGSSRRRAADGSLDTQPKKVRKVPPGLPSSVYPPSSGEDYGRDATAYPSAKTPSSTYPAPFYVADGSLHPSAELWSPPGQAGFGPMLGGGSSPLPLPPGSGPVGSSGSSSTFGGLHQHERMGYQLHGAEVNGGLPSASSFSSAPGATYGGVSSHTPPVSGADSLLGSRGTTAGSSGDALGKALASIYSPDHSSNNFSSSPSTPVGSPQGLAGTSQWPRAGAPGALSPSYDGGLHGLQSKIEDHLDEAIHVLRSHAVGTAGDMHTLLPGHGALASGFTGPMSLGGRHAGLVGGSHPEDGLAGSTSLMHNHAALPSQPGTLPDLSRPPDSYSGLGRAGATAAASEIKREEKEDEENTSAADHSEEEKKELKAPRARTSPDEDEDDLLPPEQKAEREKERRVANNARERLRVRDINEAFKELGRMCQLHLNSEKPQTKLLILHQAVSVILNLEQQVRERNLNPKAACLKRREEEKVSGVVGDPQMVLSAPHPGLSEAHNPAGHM
UniProt P01137, whole entry, looked up: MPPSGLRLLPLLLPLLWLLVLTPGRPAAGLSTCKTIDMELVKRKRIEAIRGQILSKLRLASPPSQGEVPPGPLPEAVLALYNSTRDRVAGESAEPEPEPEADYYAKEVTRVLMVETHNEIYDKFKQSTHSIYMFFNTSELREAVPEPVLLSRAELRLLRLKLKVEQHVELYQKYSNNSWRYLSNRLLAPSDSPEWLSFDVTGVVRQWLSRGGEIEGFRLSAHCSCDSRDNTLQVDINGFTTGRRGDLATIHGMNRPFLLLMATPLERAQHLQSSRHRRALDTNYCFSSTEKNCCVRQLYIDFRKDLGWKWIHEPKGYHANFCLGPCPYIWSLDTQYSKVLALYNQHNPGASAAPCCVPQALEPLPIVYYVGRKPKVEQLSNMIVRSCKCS
UniProt Q92609: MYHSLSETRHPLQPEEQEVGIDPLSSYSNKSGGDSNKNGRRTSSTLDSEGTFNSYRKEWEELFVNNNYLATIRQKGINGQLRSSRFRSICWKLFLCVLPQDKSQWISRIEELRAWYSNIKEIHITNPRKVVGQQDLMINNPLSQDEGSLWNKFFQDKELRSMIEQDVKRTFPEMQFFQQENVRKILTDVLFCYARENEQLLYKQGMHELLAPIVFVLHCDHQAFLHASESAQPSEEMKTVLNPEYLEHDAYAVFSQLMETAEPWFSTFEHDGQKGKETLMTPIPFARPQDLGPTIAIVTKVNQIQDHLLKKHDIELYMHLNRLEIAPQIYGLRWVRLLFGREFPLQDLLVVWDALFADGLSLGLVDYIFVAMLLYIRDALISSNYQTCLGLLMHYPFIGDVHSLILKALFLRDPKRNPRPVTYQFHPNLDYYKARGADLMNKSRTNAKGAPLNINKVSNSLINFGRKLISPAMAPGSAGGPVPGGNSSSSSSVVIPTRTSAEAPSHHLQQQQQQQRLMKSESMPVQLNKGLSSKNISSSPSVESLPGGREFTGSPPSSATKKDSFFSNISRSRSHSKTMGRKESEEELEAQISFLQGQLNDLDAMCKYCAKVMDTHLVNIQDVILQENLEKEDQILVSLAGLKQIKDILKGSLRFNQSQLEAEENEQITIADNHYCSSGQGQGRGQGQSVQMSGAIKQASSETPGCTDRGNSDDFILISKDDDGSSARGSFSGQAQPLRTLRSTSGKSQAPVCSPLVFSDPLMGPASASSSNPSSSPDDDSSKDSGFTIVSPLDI
UniProt Q9Y6J9: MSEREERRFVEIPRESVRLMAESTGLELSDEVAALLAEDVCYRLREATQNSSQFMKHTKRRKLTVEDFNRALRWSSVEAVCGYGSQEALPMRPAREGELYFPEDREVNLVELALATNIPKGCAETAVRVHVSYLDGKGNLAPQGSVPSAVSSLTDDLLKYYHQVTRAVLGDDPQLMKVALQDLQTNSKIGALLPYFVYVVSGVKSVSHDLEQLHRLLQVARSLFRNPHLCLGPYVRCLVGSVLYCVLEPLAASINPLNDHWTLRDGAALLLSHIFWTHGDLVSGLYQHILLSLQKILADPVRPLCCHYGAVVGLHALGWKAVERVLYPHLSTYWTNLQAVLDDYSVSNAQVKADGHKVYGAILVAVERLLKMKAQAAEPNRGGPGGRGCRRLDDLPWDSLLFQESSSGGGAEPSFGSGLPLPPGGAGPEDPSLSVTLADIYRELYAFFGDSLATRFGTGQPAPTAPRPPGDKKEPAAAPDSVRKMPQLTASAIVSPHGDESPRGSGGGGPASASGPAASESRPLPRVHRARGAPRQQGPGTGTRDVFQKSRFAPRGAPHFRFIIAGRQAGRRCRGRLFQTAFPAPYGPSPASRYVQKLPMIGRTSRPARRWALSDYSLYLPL
UniProt Q92734, whole entry, looked up: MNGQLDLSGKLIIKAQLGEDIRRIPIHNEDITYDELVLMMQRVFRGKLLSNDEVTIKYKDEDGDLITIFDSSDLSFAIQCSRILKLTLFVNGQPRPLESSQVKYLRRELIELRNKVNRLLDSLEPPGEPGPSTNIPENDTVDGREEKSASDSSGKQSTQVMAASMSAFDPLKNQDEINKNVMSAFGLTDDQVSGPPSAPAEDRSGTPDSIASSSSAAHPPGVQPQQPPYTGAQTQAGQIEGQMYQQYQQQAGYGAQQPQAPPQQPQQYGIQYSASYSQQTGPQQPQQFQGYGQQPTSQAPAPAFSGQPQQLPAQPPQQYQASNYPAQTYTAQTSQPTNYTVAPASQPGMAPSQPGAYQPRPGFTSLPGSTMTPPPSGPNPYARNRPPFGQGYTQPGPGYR
UniProt Q13488, whole entry, looked up: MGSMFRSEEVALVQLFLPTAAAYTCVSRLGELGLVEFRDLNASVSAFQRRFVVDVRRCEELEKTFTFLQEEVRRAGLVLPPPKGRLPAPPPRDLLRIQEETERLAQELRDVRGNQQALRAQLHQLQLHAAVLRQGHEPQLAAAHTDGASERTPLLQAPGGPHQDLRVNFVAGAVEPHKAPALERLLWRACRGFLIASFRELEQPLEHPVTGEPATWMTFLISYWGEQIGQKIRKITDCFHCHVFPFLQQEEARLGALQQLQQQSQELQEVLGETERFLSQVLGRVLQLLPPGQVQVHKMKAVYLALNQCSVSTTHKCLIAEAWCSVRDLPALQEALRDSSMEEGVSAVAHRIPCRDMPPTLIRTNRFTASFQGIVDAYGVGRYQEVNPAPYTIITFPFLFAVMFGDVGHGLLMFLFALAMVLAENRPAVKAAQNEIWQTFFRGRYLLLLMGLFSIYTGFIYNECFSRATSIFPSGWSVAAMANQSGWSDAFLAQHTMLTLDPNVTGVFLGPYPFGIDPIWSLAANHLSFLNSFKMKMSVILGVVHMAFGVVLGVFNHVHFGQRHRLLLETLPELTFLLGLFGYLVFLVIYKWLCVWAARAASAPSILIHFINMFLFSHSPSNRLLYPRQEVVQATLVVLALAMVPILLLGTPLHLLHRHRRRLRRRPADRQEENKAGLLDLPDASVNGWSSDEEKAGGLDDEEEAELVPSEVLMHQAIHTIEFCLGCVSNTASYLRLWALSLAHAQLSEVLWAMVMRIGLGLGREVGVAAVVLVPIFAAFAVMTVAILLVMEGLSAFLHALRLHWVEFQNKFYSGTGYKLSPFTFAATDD
UniProt Q9NU19: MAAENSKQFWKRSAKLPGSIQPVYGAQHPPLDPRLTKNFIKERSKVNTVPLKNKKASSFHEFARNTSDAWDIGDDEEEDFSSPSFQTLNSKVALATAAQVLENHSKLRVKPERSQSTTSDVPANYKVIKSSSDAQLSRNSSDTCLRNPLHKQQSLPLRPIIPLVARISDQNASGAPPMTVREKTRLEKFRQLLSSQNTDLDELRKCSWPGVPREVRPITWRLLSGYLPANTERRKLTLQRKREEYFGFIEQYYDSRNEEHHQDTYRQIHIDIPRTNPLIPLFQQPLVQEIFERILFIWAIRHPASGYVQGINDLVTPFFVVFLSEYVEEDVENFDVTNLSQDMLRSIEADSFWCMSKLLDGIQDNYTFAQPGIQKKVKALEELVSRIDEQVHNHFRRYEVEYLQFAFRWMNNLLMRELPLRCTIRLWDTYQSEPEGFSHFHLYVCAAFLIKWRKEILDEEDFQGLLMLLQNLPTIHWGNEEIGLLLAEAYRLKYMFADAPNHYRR
UniProt Q9NXF1: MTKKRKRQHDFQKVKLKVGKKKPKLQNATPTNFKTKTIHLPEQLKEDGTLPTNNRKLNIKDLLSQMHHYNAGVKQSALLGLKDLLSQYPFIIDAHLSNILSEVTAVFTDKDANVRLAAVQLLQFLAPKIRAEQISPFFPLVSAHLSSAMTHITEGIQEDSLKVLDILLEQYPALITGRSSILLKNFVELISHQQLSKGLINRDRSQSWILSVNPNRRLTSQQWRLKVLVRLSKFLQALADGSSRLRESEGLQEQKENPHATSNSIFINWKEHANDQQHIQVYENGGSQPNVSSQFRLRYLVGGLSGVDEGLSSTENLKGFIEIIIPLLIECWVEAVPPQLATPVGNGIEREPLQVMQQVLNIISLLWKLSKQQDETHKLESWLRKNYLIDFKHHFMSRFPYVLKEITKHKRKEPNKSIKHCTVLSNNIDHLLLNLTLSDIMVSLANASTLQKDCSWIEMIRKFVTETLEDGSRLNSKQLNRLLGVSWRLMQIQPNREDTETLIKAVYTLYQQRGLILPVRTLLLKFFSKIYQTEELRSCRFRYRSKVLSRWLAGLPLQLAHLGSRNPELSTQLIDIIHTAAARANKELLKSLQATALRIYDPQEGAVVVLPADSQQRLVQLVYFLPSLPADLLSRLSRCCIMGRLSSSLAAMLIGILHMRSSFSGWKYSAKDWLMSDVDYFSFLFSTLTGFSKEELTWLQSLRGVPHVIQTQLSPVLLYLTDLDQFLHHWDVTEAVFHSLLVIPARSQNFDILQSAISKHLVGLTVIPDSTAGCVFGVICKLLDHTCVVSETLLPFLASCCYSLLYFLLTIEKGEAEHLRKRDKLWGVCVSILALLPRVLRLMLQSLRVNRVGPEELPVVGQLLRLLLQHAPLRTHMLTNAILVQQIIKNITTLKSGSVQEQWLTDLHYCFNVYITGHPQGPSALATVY
UniProt P62380: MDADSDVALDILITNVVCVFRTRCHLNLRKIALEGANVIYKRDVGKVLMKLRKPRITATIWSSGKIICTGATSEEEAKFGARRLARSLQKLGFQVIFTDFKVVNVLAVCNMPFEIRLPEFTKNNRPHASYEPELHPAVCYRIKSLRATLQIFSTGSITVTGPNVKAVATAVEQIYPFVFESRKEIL

Legend:
Assay in all cases: log2 fold change, soluble protein after heating vs DMSO (PISA); higher = thermal stabilisation; K562 lysate, 10 uM; active = over 0.2 and 3.5 SD of the protein, either way, in both replicates (recomputed)
alvocidib = compound: CN1CC[C@H](c2c(O)cc(O)c3c(=O)cc(-c4ccccc4Cl)oc23)[C@H](O)C1 [alvocidib]
Summary of the method: (§1)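 A 30 min treatment with 10 μM compound was applied to crude K562 extract at 1 mg/mL protein in PBS pH 7.4 with 1 mM MgCl2. Heating for 3 min spanned 48°C-58°C, after which aliquots were pooled, adjusted to 0.5% NP-40 at 4°C and spun at 21,000xg for 90 min. TMTpro 16plex LC-MS/MS of the supernatant, with channel sums equalised, gave values recorded as log-two fold change in thermal stability against solvent controls, from duplicates.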

Tubastatin A = compound: CN1CCc2c(c3ccccc3n2Cc2ccc(C(=O)NO)cc2)C1 [Tubastatin A]
Summary of the method: as §1

[1] = compound: CNC(=O)C1=CC=CC=C1NC2=NC(=NC=C2Cl)NC3=C(C=C(C=C3)N4CCOCC4)OC
Summary of the method: as §1

defactinib = compound: CNC(=O)c1ccc(Nc2ncc(C(F)(F)F)c(NCc3nccnc3N(C)S(C)(=O)=O)n2)cc1 [defactinib]
Summary of the method: as §1

[2] = compound: CNc1nc(-c2ccc3c(N)n[nH]c3c2)cc(N2C[C@@H](C(=O)NC3CCCCC3)CC[C@H]2C)n1
Summary of the method: as §1

encorafenib = compound: COC(=O)N[C@@H](C)CNc1nccc(-c2cn(C(C)C)nc2-c2cc(Cl)cc(NS(C)(=O)=O)c2F)n1 [encorafenib]
Summary of the method: as §1

[3] = compound: COC(=O)[C@H](CCSC)NC(=O)C1=C(C=C(C=C1)NC[C@H](CS)N)C2=CC=CC=C2
Summary of the method: as §1

alisertib = compound: COc1cc(Nc2ncc3c(n2)-c2ccc(Cl)cc2C(c2c(F)cccc2OC)=NC3)ccc1C(=O)O [alisertib]
Summary of the method: as §1

[4] = compound: COc1cc2nc(-c3cc(F)ccc3O)nc(N[C@@H]3CNC[C@H]3C(C)(C)O)c2cc1OC
Summary of the method: as §1

gefitinib = compound: COc1cc2ncnc(Nc3ccc(F)c(Cl)c3)c2cc1OCCCN1CCOCC1 [gefitinib]
Summary of the method: as §1

lapatinib = compound: CS(=O)(=O)CCNCc1ccc(-c2ccc3ncnc(Nc4ccc(OCc5cccc(F)c5)c(Cl)c4)c3c2)o1 [lapatinib]
Summary of the method: as §1

pictilisib = compound: CS(=O)(=O)N1CCN(Cc2cc3nc(-c4cccc5[nH]ncc45)nc(N4CCOCC4)c3s2)CC1 [pictilisib]
Summary of the method: as §1

crizotinib = compound: C[C@@H](Oc1cc(-c2cnn(C3CCNCC3)c2)cnc1N)c1c(Cl)ccc(F)c1Cl [crizotinib]
Summary of the method: as §1

[5] = compound: C[C@H](C1=CC=C(C=C1)C(=O)NC2=C3C=CNC3=NC=C2)N
Summary of the method: as §1

duvelisib = compound: C[C@H](Nc1ncnc2nc[nH]c12)c1cc2cccc(Cl)c2c(=O)n1-c1ccccc1 [duvelisib]
Summary of the method: as §1

gandotinib = compound: Cc1cc(Nc2cc(CN3CCOCC3)c3nc(C)c(Cc4ccc(Cl)cc4F)n3n2)n[nH]1 [gandotinib]
Summary of the method: as §1

tozasertib = compound: Cc1cc(Nc2cc(N3CCN(C)CC3)nc(Sc3ccc(NC(=O)C4CC4)cc3)n2)n[nH]1 [tozasertib]
Summary of the method: as §1

doramapimod = compound: Cc1ccc(-n2nc(C(C)(C)C)cc2NC(=O)Nc2ccc(OCCN3CCOCC3)c3ccccc23)cc1 [doramapimod]
Summary of the method: as §1

bafetinib = compound: Cc1ccc(NC(=O)c2ccc(CN3CC[C@H](N(C)C)C3)c(C(F)(F)F)c2)cc1Nc1nccc(-c2cncnc2)n1 [bafetinib]
Summary of the method: as §1

[6] = compound: Cc1cccc(CC(=O)N2CCc3c2ccc(-c2cn(C)c4ncnc(N)c24)c3F)n1
Summary of the method: as §1

Target | log2 fold change (alvocidib) | log2 fold change (Tubastatin A) | log2 fold change [1] | log2 fold change (defactinib) | log2 fold change [2] | log2 fold change (encorafenib) | log2 fold change [3] | log2 fold change (alisertib) | log2 fold change [4] | log2 fold change (gefitinib) | log2 fold change (lapatinib) | log2 fold change (pictilisib) | log2 fold change (crizotinib) | log2 fold change [5] | log2 fold change (duvelisib) | log2 fold change (gandotinib) | log2 fold change (tozasertib) | log2 fold change (doramapimod) | log2 fold change (bafetinib) | log2 fold change [6]
TARDBP (UniProt Q13148) | inactive: -0.006 | active: -0.318 | inactive: -0.044 | inactive: 0 | inactive: -0.139 | inactive: 0.181 | inactive: 0.137 | inactive: 0.012 | inactive: -0.004 | inactive: 0.06 | inactive: 0.002 | inactive: 0.145 | inactive: 0.018 | inactive: 0.005 | inactive: -0.045 | inactive: 0.115 | inactive: 0.022 | inactive: 0.282 | inactive: -0.055 | inactive: 0.044
TCEA1 (UniProt P23193) | inactive: 0.016 | inactive: 0.029 | inactive: -0.007 | inactive: -0.023 | inactive: -0.002 | inactive: 0.031 | inactive: -0.034 | inactive: -0.055 | inactive: -0.001 | inactive: -0.027 | inactive: 0.022 | inactive: 0.008 | inactive: 0.056 | inactive: 0.136 | inactive: 0.024 | inactive: -0.052 | inactive: 0.028 | inactive: -0.002 | inactive: 0.09 | inactive: -0.128
TBL3 (UniProt Q12788) | inactive: -0.019 | inactive: -0.08 | inactive: 0.014 | inactive: 0.016 | inactive: 0.01 | inactive: -0.021 | inactive: 0.072 | inactive: 0.015 | inactive: 0.006 | inactive: -0.123 | inactive: -0.022 | inactive: -0.027 | inactive: -0.017 | inactive: -0.028 | inactive: -0.009 | inactive: -0.05 | inactive: -0.008 | inactive: -0.024 | inactive: -0.019 | inactive: 0.04
TCF3 (UniProt P15923) | inactive: -0.039 | inactive: -0.066 | inactive: 0.034 | inactive: 0.089 | inactive: 0.19 | inactive: 0.135 | inactive: -0.051 | inactive: 0.047 | inactive: 0.027 | inactive: 0.023 | inactive: 0.014 | inactive: 0.014 | inactive: 0.066 | inactive: -0.042 | active: 0.22 | inactive: 0.053 | inactive: -0.013 | inactive: -0.031 | inactive: -0.036 | inactive: -0.032
TGFB1 (UniProt P01137) | inactive: -0.034 | inactive: 0.024 | inactive: 0.014 | inactive: 0.003 | inactive: -0.011 | inactive: -0.002 | inactive: -0.019 | inactive: -0.042 | inactive: -0.004 | inactive: -0.007 | inactive: -0.037 | inactive: -0.019 | inactive: 0.016 | inactive: -0.056 | inactive: 0.027 | inactive: 0.052 | inactive: -0.002 | inactive: -0.026 | inactive: -0.026 | inactive: 0.027
TBC1D5 isoform 2 (UniProt Q92609) | inactive: 0 | inactive: -0.014 | inactive: 0.032 | inactive: 0.009 | inactive: 0.043 | inactive: 0.026 | inactive: -0.004 | inactive: -0.013 | inactive: -0.005 | inactive: -0.001 | inactive: -0.002 | inactive: -0.014 | inactive: -0.045 | inactive: 0.008 | inactive: -0.036 | inactive: -0.05 | inactive: -0.011 | inactive: 0.045 | inactive: -0.011 | inactive: 0.039
TAF7 (UniProt Q15545) | inactive: -0.011 | inactive: 0.023 | inactive: 0 | inactive: 0.025 | inactive: -0.006 | inactive: 0.057 | inactive: -0.024 | inactive: 0.016 | inactive: -0.028 | inactive: 0.074 | inactive: 0.028 | inactive: -0.011 | inactive: 0.028 | inactive: -0.04 | inactive: -0.004 | inactive: 0.089 | inactive: 0.038 | inactive: 0.066 | inactive: -0.027 | inactive: -0.04
TAF6L (UniProt Q9Y6J9) | inactive: 0.018 | inactive: -0.109 | inactive: -0.035 | inactive: 0.001 | inactive: -0.116 | inactive: 0.096 | inactive: -0.051 | inactive: 0.006 | inactive: 0.006 | inactive: -0.046 | inactive: -0.044 | inactive: -0.091 | inactive: 0.035 | inactive: 0.037 | inactive: 0.024 | inactive: -0.042 | inactive: 0.017 | inactive: -0.019 | inactive: -0.009 | inactive: 0.028
TFG (UniProt Q92734) | inactive: -0.021 | inactive: 0.044 | inactive: -0.011 | inactive: 0 | inactive: 0.022 | inactive: -0.002 | inactive: -0.032 | inactive: -0.034 | inactive: 0.015 | inactive: -0.011 | inactive: 0.009 | inactive: -0.008 | inactive: 0.019 | inactive: -0.015 | inactive: 0.02 | inactive: 0.022 | inactive: -0.009 | inactive: -0.027 | inactive: 0.043 | inactive: -0.038
TBL1XR1 (UniProt Q9BZK7) | inactive: -0.02 | inactive: 0.055 | inactive: 0.05 | inactive: 0.014 | inactive: -0.008 | inactive: 0.025 | inactive: -0.028 | inactive: -0.047 | inactive: 0.035 | inactive: -0.028 | inactive: -0.003 | inactive: -0.022 | inactive: 0.037 | inactive: 0.034 | inactive: 0.001 | inactive: -0.061 | inactive: -0.003 | inactive: -0.001 | inactive: -0.043 | inactive: -0.048
TCIRG1 (UniProt Q13488) | inactive: -0.01 | inactive: 0.026 | inactive: 0.017 | inactive: 0.086 | inactive: 0.02 | inactive: 0.103 | inactive: -0.004 | inactive: -0.043 | inactive: 0.037 | inactive: 0.122 | inactive: 0.037 | inactive: -0.036 | inactive: -0.022 | inactive: -0.007 | inactive: -0.069 | inactive: 0.006 | inactive: -0.049 | inactive: -0.091 | inactive: -0.05 | inactive: 0.003
TBC1D22B (UniProt Q9NU19) | inactive: 0.037 | inactive: 0.007 | inactive: -0.033 | inactive: 0.016 | inactive: -0.003 | inactive: 0.055 | inactive: -0.009 | inactive: 0.009 | inactive: 0.013 | inactive: -0.035 | inactive: -0.042 | inactive: 0.012 | inactive: -0.027 | inactive: 0.009 | inactive: 0 | inactive: -0.012 | inactive: 0 | inactive: 0.01 | inactive: -0.088 | inactive: 0.038
TDP2 isoform 2 (UniProt O95551) | inactive: 0.001 | inactive: 0.063 | inactive: 0.01 | inactive: -0.024 | inactive: -0.045 | inactive: 0.058 | inactive: -0.014 | inactive: 0.03 | inactive: 0.026 | inactive: 0.006 | inactive: -0.048 | inactive: 0.027 | inactive: 0.024 | inactive: 0.01 | inactive: 0.013 | inactive: -0.013 | inactive: 0.006 | inactive: 0.046 | inactive: -0.02 | inactive: 0.006
TEX10 (UniProt Q9NXF1) | inactive: -0.023 | inactive: -0.06 | inactive: -0.025 | inactive: -0.031 | inactive: 0.031 | inactive: 0.045 | inactive: -0.044 | inactive: 0.063 | inactive: -0.072 | inactive: -0.024 | inactive: 0.031 | inactive: -0.018 | inactive: 0.024 | inactive: -0.053 | inactive: 0.022 | inactive: -0.025 | inactive: -0.024 | inactive: -0.046 | inactive: 0.142 | inactive: 0.095
TBRG4 (UniProt Q969Z0) | inactive: 0.017 | inactive: -0.089 | inactive: 0.007 | inactive: 0.071 | inactive: -0.018 | inactive: 0.01 | inactive: -0.013 | inactive: 0.037 | inactive: -0.008 | inactive: -0.015 | inactive: -0.021 | inactive: -0.039 | inactive: -0.031 | inactive: 0.08 | inactive: 0.006 | active: -0.269 | inactive: 0.038 | inactive: -0.012 | inactive: -0.029 | inactive: -0.021
TBPL1 (UniProt P62380) | inactive: -0.004 | inactive: -0.003 | inactive: 0.048 | inactive: -0.022 | inactive: 0.009 | inactive: -0.075 | inactive: 0.031 | inactive: 0.005 | inactive: 0.011 | inactive: -0.021 | inactive: -0.014 | inactive: 0.031 | inactive: -0.022 | inactive: -0.07 | inactive: -0.001 | inactive: 0.07 | inactive: 0.116 | inactive: -0.024 | inactive: -0.012 | inactive: 0.01

Two entries from above, set out differently.
Target	log2 fold change (alvocidib)	log2 fold change (Tubastatin A)	log2 fold change [1]	log2 fold change (defactinib)	log2 fold change [2]	log2 fold change (encorafenib)	log2 fold change [3]	log2 fold change (alisertib)	log2 fold change [4]	log2 fold change (gefitinib)	log2 fold change (lapatinib)	log2 fold change (pictilisib)	log2 fold change (crizotinib)	log2 fold change [5]	log2 fold change (duvelisib)	log2 fold change (gandotinib)	log2 fold change (tozasertib)	log2 fold change (doramapimod)	log2 fold change (bafetinib)	log2 fold change [6]
TBL3 (UniProt Q12788)	inactive: -0.019	inactive: -0.08	inactive: 0.014	inactive: 0.016	inactive: 0.01	inactive: -0.021	inactive: 0.072	inactive: 0.015	inactive: 0.006	inactive: -0.123	inactive: -0.022	inactive: -0.027	inactive: -0.017	inactive: -0.028	inactive: -0.009	inactive: -0.05	inactive: -0.008	inactive: -0.024	inactive: -0.019	inactive: 0.04
TGFB1 (UniProt P01137)	inactive: -0.034	inactive: 0.024	inactive: 0.014	inactive: 0.003	inactive: -0.011	inactive: -0.002	inactive: -0.019	inactive: -0.042	inactive: -0.004	inactive: -0.007	inactive: -0.037	inactive: -0.019	inactive: 0.016	inactive: -0.056	inactive: 0.027	inactive: 0.052	inactive: -0.002	inactive: -0.026	inactive: -0.026	inactive: 0.027
